Literature values as cited in patent publication US8492413B2, “Pharmaceutical combination of 5-fluorouracil and derivate of 1,4-dihydropyridine and its use in the treatment of cancer” (priority 2009, dated 2013).
For at least one compound, name, drawing or mass did not settle the structure.

Experiments:
[1] = cited from earlier work
[2] = cited from earlier work; remark: listed apart in the source

CC1=C(C(=O)OCC(=O)[O-])CC(C(=O)OCC(=O)[O-])=C(C)N1.[Na+].[Na+] [Carbatone, Disodium salt of carboxylate-methyl ester of 2,6-dimethyl-1,4-dihydropyridine-3,5-dicarboxylic acid]
Antimetastatic activity [1]: antimetastatic activity
Effect on antitumour activity of 5-fluorouracil [2]: increase antitumour activity of 5-fluorouracil
